Patent publication US20190152966A1 (INSTITUTE OF CANCER RESEARCH ROYAL CANCER HOSPITAL, published 2019)
No constants are given. Whether binding was seen depends on the method and setting. Some binding calls cover weakened binding; strength is not graded here. Where a sequence is shown, tags or fusion partners need not be part of it.

Sequences of proteins named here, by UniProt entry; tags and fusion partners are left off. Residues count along the entry.
UniProt Q92743, residues 23-480: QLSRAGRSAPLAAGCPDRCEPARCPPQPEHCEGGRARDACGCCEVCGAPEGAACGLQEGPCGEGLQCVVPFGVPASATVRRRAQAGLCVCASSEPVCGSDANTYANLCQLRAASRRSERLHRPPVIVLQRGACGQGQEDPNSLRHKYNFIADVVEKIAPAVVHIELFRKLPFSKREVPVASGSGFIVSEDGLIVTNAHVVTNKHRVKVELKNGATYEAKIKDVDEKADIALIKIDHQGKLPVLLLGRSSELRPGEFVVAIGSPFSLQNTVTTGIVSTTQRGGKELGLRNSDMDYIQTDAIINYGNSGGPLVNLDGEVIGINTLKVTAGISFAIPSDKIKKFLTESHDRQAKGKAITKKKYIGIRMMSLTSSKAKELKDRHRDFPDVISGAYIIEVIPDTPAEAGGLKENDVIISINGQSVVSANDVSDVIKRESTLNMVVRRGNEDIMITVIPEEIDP

How the values were obtained:
[1] = target: HTRA1 (secreted serine protease) (human) (UniProt Q92743); assay: western blot; the HTRA1/GFP ratio indicates binding strength
[2] = target: HTRA1 (secreted serine protease) (human) (UniProt Q92743); assay: pull-down of extracellular proteins from MDA-MB-231 culture medium with LOX-GFP, western blot (FIGS. 16 and 17)

B1: LOX-GFP (WT) (protein, mouse, UniProt P28301 22-411, looked up, not shown: large carriers)
chain: APQTPREPPAAPGAWRQTIQWENNGQVFSLLSLGAQYQPQRRRDPSATARRPDGDAASQPRTPILLLRDNRTASTRARTPSPSGVAAGRPRPAARHWFQAGFSPSGARDGASRRAANRTASPQPPQLSNLRPPSHIDRMVGDDPYNPYKYSDDNPYYNYYDTYERPRPGSRNRPGYGTGYFQYGLPDLVPDPYYIQASTYVQKMSMYNLRCAAEENCLASSAYRADVRDYDHRVLLRFPQRVKNQGTSDFLPSRPRYSWEWHSCHQHYHSMDEFSHYDLLDANTQRRVAEGHKASFCLEDTSCDYGYHRRFACTAHTQGLSPGCYDTYAADIDCQWIDITDVQPGNYILKVSVNPSYLVPESDYTNNVVRCDIRYTGHHAYASGCTISPY
Q: For B1, which binding [1] is on record?
A: binds

Q: And the binding [2]?
A: binds
